Assay: general procedure: Boc solid-phase peptide synthesis; Boc-Gly-resin; p-nitrophenyl ester with hydroxybenzotriazole
Settings: for isolated yield / crude mass / isolated mass: whole synthesis

Substance	isolated yield (based on initial Gly content on the resin, scale 0.5 mmol) [%]	crude mass (scale 0.5 mmol) [mg]	isolated mass (scale 0.5 mmol) [mg]	step yield (coupling step) [%]	isolated yield (based upon initial glycine content of the resin, scale 0.4 mmol) [%]	crude mass (scale 0.4 mmol) [mg]	isolated mass (scale 0.4 mmol) [mg]
β-(S-Benzylmercapto)-β,β-cyclopentamethylenepropionyl-Tyr(Bzl)-Phe-Gln-Asn-Cys(Bzl)-Pro-Arg(Tos)-Gly-NH2	62.4	723	488	–	–	–	–
β-(S-Benzylmercapto)-β,β-cyclopentamethylenepropionyl-Tyr(Me)-Phe-Gln-Asn-Cys(Bzl)-Pro-Arg(Tos)-Gly-NH2	–	–	–	77.3	50.7	410	302

— US4399125A (priority 1981, dated 1983)
